Data taken from US20220346389A1, “BAKED CONFECTION” (National University of Singapore, priority 2019, published 2022).
At least one compound was matched to its structure with a doubt left.

System: α-glucosidase (AGH)
Experiment: AGH inhibition assay, mixed inhibitory model, acarbose equivalents
Assay type: biochemical

C[C@H]1O[C@H](O[C@H]2[C@H](O)[C@@H](O)[C@@H](O[C@H]3[C@H](O)[C@@H](O)C(O)O[C@@H]3CO)O[C@@H]2CO)[C@H](O)[C@@H](O)[C@@H]1N[C@H]1C=C(CO)[C@@H](O)[C@H](O)[C@H]1O (stereo partly shown) [acarbose, Acarbose]
inhibition of AGH: strong inhibitor of AGH
